The list shows only some results of the screen, not a fair sample: it is rich in T/C values a quarter to a half above the control, in often repeated tests (any T/C) and in doses without a T/C. Other doses and runs of a compound stand elsewhere. T/C is the treated group as % of the vehicle group. Schedules are NCI's codes, taken here to give the interval after Q, in days (D) or hours (H), and the number of doses after X. Some entries hold several experiments; the values are given in rising order. Some T/C values are followed by the survivors on the day toxicity was checked, most often the fifth; without a count, all were alive then. Some doses have a count of surviving animals in place of a T/C: the source holds a T/C of zero for them, seemingly a mark for toxic or unscored doses. Survivors were counted at the toxicity check, usually on the fifth day, unless a day is given; later deaths do not show.
Test system: nude mice, A549 intrarenal xenograft, tumor weight change
Test: NCI In Vivo Anticancer Drug Screen. Data for tumor model A549 Human Adenocarcinoma of Lung with characteristics of Type II Alveolar Epithelial cells (intrarenal inoculation) in NU/NU BALB/C (nude) mice
Conditions: T/C endpoint: mean tumor weight change, higher T/C = larger tumour
Outline: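 Activity is expressed as T/C: the treated-group value over the vehicle-treated control value. The measure was survival or tumor size in mice carrying transplantable tumors.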

[1] = dose: 100.0 mg/kg/injection, schedule: Q04DX003 (ip), vehicle: saline with Tween-80
[2] = dose: 300.0 mg/kg/injection, schedule: Q04DX003 (ip), vehicle: saline with Tween-80
[3] = dose: 600.0 mg/kg/injection, schedule: Q04DX003 (ip), vehicle: saline with Tween-80
[4] = dose: 1200.0 mg/kg/injection, schedule: Q04DX003 (ip), vehicle: saline with Tween-80
[5] = dose: 150.0 mg/kg/injection, schedule: Q04DX003 (ip), vehicle: saline with Tween-80

In the case of `CO[C@H](/C(C)=C/C=C/C(C)=C/c1coc(C)n1)[C@H](C)[C@H]1C[C@@H](O)[C@@]2(C)O[C@H]2/C=C/[C@@H](C)[C@@H]2C[C@@H](CC(=O)O2)C[C@H]2O[C@@H]2C(=O)O1`, the survivor count (dose: 0.2 mg/kg/injection, schedule: Q01DX009 (ip), vehicle: other) was 3 of 6 on day 12, the survivor count (dose: 0.3 mg/kg/injection, schedule: Q01DX009 (ip), vehicle: other) was 0 of 6 on day 12 and 2 of 6 on day 12 and the survivor count (dose: 0.44 mg/kg/injection, schedule: Q01DX009 (ip), vehicle: Klucel (hydroxypropylcellulose) (HPC)) was 0 of 10 on day 12. The survivor count (dose: 0.44 mg/kg/injection, schedule: Q01DX009 (ip), vehicle: other) was 0 of 3 on day 12 and 2 of 6 on day 12, the survivor count (dose: 0.5 mg/kg/injection, schedule: Q01DX009 (ip), vehicle: other) was 0 of 6 on day 12 and the survivor count (dose: 0.66 mg/kg/injection, schedule: Q01DX009 (ip), vehicle: Klucel (hydroxypropylcellulose) (HPC)) was 0 of 10 on day 12. For the same compound, the survivor count (dose: 0.83 mg/kg/injection, schedule: Q01DX009 (ip), vehicle: other) was 0 of 6 on day 12, the survivor count (dose: 1.0 mg/kg/injection, schedule: Q01DX009 (ip), vehicle: Klucel (hydroxypropylcellulose) (HPC)) was 0 of 10 on day 12 and the survivor count (dose: 13.0 mg/kg/injection, schedule: Q01DX009 (ip), vehicle: other) was 0 of 6 on day 12. For the same compound, the survivor count (dose: 13.0 mg/kg/injection, schedule: Q01DX009 (ip), vehicle: saline) was 0 of 6 on day 12, the survivor count (dose: 20.0 mg/kg/injection, schedule: Q01DX009 (ip), vehicle: other) was 0 of 6 on day 12 and the survivor count (dose: 20.0 mg/kg/injection, schedule: Q01DX009 (ip), vehicle: saline) was 0 of 6 on day 12. For the same compound, the survivor count (dose: 30.0 mg/kg/injection, schedule: Q01DX009 (ip), vehicle: other) was 0 of 6 on day 12, the survivor count (dose: 30.0 mg/kg/injection, schedule: Q01DX009 (ip), vehicle: saline) was 0 of 6 on day 12 and the survivor count (dose: 44.0 mg/kg/injection, schedule: Q01DX009 (ip), vehicle: other) was 0 of 6 on day 12. For the same compound, the survivor count (dose: 44.0 mg/kg/injection, schedule: Q01DX009 (ip), vehicle: saline) was 0 of 6 on day 12.

In the case of `C/C(=N\NC(=S)N1CC2CCC(CC2)C1)c1cccc(C)n1`, the survivor count (dose: 50.0 mg/kg/injection, schedule: Q04DX003 (ip), vehicle: saline with Tween-80) was 3 of 6 on day 12 and the survivor count [1] was 2 of 6 on day 12.

`O=C1c2cccc(NCCCNCCO)c2C(=O)c2cccc(NCCCNCCO)c21` was tested, and the survivor count (dose: 50.0 mg/kg/injection, schedule: Q04DX003 (ip), vehicle: acid diluted with saline) was 1 of 6 on day 12.

`Cc1cc(O)c2c(c1O)C(=O)C13C(=C2O)C(=O)C2C(O)C1C1C(O)C3C(=O)C3=C(O)c4c(O)cc(C)c(O)c4C(=O)C321` (configuration not stated) was tested, and the T/C (dose: 4.0 mg/kg/injection, schedule: Q04DX003 (ip), vehicle: saline with Tween-80, evaluated on day 12) was 148 % of control and the survivor count (dose: 8.0 mg/kg/injection, schedule: Q04DX003 (ip), vehicle: saline with Tween-80) was 3 of 6 on day 12.

For `N#Cc1c(N)[nH]c2ccc(Sc3ccccc3)cc12`, the T/C (dose: 120.0 mg/kg/injection, schedule: Q04DX003 (ip), vehicle: saline, evaluated on day 12) was 133 % of control.

In the case of `NC(=O)c1[nH]cnc1O`, the survivor count [2] was 2 of 6 on day 12, the survivor count [3] was 0 of 6 on day 12 and the survivor count [4] was 0 of 6 on day 12.

With `Nc1n[nH]c2ccccc12` the survivor count [4] was 0 of 6 on day 12.

`O=[N+]([O-])c1ccc(N(CCO)CCO)c2c1no[n+]2[O-]` was tested, and the survivor count [1] was 1 of 6 on day 12.

`c1ccc([Te][Te]c2ccccc2)cc1` was tested, and the T/C (dose: 75.0 mg/kg/injection, schedule: Q04DX003 (ip), vehicle: saline with Tween-80, evaluated on day 12) was 133 % of control, the survivor count (dose: 75.0 mg/kg/injection, schedule: Q04DX003 (ip), vehicle: saline with Tween-80) was 3 of 5 on day 12 and the survivor count [5] was 0 of 6 on day 12. The survivor count [2] was 0 of 6 on day 12 and the survivor count [3] was 0 of 6 on day 12.

`O=C1CN(c2ccccc2)C(=O)C1C(=O)Nc1ccc(Cl)c(Cl)c1` (configuration not stated) was tested, and the T/C (dose: 120.0 mg/kg/injection, schedule: Q04DX003 (ip), vehicle: saline with Tween-80, evaluated on day 11) was 39 % of control, the T/C (dose: 120.0 mg/kg/injection, schedule: Q04DX003 (ip), vehicle: saline with Tween-80, evaluated on day 12) was 45, 90, 91 % of control and the T/C (dose: 240.0 mg/kg/injection, schedule: Q04DX003 (ip), vehicle: saline with Tween-80, evaluated on day 11) was 21 % of control. For the same compound, the T/C (dose: 240.0 mg/kg/injection, schedule: Q04DX003 (ip), vehicle: saline with Tween-80, evaluated on day 12) was 50, 62, 82 % of control, the survivor count (dose: 346.0 mg/kg/injection, schedule: Q04DX003 (ip), vehicle: saline with Tween-80) was 1 of 6 on day 12 and the T/C (dose: 480.0 mg/kg/injection, schedule: Q04DX003 (ip), vehicle: saline with Tween-80, evaluated on day 11) was 57 % of control. For the same compound, the T/C (dose: 480.0 mg/kg/injection, schedule: Q04DX003 (ip), vehicle: saline with Tween-80, evaluated on day 12) was 38 % of control [4 of 6 alive on day 12], the survivor count (dose: 480.0 mg/kg/injection, schedule: Q04DX003 (ip), vehicle: saline with Tween-80) was 1 of 6 on day 12 and 2 of 6 on day 12 and the survivor count (dose: 576.0 mg/kg/injection, schedule: Q04DX003 (ip), vehicle: saline with Tween-80) was 0 of 6 on day 12. The T/C (dose: 960.0 mg/kg/injection, schedule: Q04DX003 (ip), vehicle: saline with Tween-80, evaluated on day 11) was 11 % of control, the survivor count (dose: 960.0 mg/kg/injection, schedule: Q04DX003 (ip), vehicle: saline with Tween-80) was 0 of 6 on day 12 and 2 of 6 on day 12 and the survivor count (dose: 1600.0 mg/kg/injection, schedule: Q04DX003 (ip), vehicle: saline with Tween-80) was 0 of 6 on day 12.

In the case of `Cc1ccc(C(=O)NC2C(=O)NC(C(C)C)C(=O)N3CCCC3C(=O)N(C)CC(=O)N(C)C(C(C)C)C(=O)OC2C)c2c1Oc1c(c(C(=O)NC3C(=O)NC(C(C)C)C(=O)N4CCCC4C(=O)N(C)CC(=O)N(C)C(C(C)C)C(=O)OC3C)c3nc(-c4ccccc4)c(=O)oc3c1C)N2` (configuration not stated), the survivor count (dose: 2.0 mg/kg/injection, schedule: Q04DX003 (ip), vehicle: water) was 1 of 6 on day 12 and the survivor count (dose: 4.0 mg/kg/injection, schedule: Q04DX003 (ip), vehicle: water) was 1 of 6 on day 12.

`CN(C)CCNc1ccc(CO)c2sc3ccc(O)cc3c(=O)c12` was tested, and the survivor count [2] was 0 of 6 on day 12 and the survivor count [3] was 0 of 6 on day 12.

In the case of `O=C(Nc1cccc(O)c1)C(Cl)=C(Cl)Cl`, the survivor count (dose: 12.5 mg/kg/injection, schedule: Q04DX003 (ip), vehicle: DMSO) was 2 of 6 on day 12, the survivor count (dose: 50.0 mg/kg/injection, schedule: Q04DX003 (ip), vehicle: other) was 3 of 6 on day 12 and the survivor count (dose: 83.0 mg/kg/injection, schedule: Q04DX003 (ip), vehicle: other) was 0 of 6 on day 12. For the same compound, the survivor count (dose: 100.0 mg/kg/injection, schedule: Q04DX003 (ip), vehicle: DMSO) was 0 of 6 on day 12 and the survivor count (dose: 139.0 mg/kg/injection, schedule: Q04DX003 (ip), vehicle: other) was 1 of 6 on day 12.

`CC[C@@]1(O)C(=O)OCc2c1cc1n(c2=O)Cc2cc3ccccc3nc2-1` was tested, and the survivor count (dose: 16.7 mg/kg/injection, schedule: Q04DX003 (ip), vehicle: saline with Tween-80) was 3 of 6 on day 12, the survivor count (dose: 20.0 mg/kg/injection, schedule: Q04DX003 (ip), vehicle: saline with Tween-80) was 2 of 6 on day 12 and the survivor count (dose: 27.8 mg/kg/injection, schedule: Q04DX003 (ip), vehicle: saline with Tween-80) was 1 of 6 on day 12. The survivor count (dose: 40.0 mg/kg/injection, schedule: Q04DX003 (ip), vehicle: saline with Tween-80) was 0 of 6 on day 12, the survivor count (dose: 54.0 mg/kg/injection, schedule: Q04DX003 (ip), vehicle: saline with Tween-80) was 0 of 6 on day 12 and the survivor count (dose: 80.0 mg/kg/injection, schedule: Q04DX003 (ip), vehicle: saline with Tween-80) was 0 of 6 on day 12. For the same compound, the survivor count (dose: 90.0 mg/kg/injection, schedule: Q04DX003 (ip), vehicle: saline with Tween-80) was 0 of 6 on day 12, the survivor count [5] was 0 of 6 on day 12 and the survivor count (dose: 250.0 mg/kg/injection, schedule: Q04DX003 (ip), vehicle: saline with Tween-80) was 0 of 6 on day 12.

Source: PubChem BioAssay AID278 (DTP/NCI, 2004)
